Measurements taken from PMC9358865.
No constants are given. Whether binding was seen depends on the method and setting. Binding seen in cells or lysates may run through a third protein. For part of these data: A result given as binding can be weak or reduced; the word gives no strength.

The chains behind the UniProt entries cited, without tags or fusion partners. Where a name states a change or a piece, a line headed by the entry shows the natural chain unless it says otherwise.
UniProt P11766: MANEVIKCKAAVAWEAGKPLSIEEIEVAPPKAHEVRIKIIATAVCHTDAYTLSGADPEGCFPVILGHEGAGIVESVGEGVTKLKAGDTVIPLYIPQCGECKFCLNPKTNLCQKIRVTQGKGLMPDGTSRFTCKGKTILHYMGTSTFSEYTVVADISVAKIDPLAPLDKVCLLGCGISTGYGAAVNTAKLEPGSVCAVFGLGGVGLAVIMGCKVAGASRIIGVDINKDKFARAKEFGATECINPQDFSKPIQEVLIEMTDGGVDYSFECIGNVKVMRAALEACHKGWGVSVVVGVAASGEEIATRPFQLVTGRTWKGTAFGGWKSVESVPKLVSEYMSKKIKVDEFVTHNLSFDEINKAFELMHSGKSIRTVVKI
UniProt O43915: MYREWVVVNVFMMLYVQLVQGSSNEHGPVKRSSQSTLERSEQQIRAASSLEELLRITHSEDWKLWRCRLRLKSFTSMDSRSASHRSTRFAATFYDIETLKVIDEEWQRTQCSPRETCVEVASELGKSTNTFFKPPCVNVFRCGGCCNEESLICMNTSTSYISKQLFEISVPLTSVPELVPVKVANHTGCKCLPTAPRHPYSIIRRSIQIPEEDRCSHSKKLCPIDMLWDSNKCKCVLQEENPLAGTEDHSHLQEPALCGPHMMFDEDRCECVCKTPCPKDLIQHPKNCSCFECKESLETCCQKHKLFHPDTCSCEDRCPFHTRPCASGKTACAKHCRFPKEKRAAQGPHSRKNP

Experiments:
[1] = biological target: S-nitrosoglutathione reductase (GSNOR) (UniProt P11766); assay: co-IP; NCI-H1975 cells at 24 h post-transfection with HA-VEGFD(WT) or HA-VEGFD(C277S); RIPA lysates, supernatants incubated with antibody and protein A/G PLUS-Agarose overnight at 4 °C; precipitating antibody not told
Thioredoxin (Trx-1) = biological target: T1, Thioredoxin (Trx-1) (UniProt P10599); assay: as above
T1 sequence: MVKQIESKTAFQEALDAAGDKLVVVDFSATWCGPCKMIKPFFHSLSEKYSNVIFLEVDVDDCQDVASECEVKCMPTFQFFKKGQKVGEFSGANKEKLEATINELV

binding [1]	binding (Thioredoxin (Trx-1))	Substance
binds		HA-VEGFD(C277S) (from UniProt O43915) (ligand)
binds	no binding	HA-VEGFD(WT), vascular endothelial growth factor D (from UniProt O43915) (ligand)
